This note sets out measurements from paper PMC12884720, “Gabpα‐Pparγ Complex Determines Glycolytic Capacity and Lactic Acid Homeostasis in Brown Fat” (Advanced Science, 2025).

Protein sequences, listed by entry. Tags and fused reporters are not part of them.
UniProt A2A935: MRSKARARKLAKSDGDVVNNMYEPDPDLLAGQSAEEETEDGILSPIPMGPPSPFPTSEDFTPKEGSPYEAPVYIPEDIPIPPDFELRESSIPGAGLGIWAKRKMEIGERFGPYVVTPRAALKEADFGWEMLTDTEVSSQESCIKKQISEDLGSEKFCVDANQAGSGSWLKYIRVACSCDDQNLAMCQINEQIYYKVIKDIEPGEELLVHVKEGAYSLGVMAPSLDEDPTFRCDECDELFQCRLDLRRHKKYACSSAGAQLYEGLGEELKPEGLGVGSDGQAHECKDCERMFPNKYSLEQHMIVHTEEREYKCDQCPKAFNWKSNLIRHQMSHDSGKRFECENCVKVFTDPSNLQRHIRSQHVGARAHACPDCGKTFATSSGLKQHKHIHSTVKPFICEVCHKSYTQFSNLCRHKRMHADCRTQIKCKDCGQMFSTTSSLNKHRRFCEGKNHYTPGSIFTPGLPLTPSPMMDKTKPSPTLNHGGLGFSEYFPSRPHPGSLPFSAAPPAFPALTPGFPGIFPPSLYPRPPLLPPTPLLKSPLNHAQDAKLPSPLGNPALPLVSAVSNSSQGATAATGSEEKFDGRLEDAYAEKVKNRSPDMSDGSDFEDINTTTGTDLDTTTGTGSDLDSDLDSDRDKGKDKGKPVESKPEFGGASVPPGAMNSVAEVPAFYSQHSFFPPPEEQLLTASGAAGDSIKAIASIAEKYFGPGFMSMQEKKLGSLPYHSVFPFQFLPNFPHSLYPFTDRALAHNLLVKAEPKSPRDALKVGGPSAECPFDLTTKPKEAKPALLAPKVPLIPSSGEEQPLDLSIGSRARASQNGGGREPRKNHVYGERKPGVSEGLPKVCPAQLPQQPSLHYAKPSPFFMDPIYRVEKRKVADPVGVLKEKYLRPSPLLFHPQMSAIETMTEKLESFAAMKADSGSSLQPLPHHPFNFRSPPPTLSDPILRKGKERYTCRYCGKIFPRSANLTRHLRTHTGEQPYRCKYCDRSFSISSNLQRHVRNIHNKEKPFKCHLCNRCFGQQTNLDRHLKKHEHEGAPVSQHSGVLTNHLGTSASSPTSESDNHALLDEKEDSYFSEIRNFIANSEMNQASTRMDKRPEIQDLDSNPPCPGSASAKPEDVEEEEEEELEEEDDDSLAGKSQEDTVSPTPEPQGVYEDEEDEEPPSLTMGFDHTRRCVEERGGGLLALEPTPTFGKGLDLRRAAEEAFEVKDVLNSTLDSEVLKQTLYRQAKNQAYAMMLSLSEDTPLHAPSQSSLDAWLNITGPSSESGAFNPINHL
UniProt P37238: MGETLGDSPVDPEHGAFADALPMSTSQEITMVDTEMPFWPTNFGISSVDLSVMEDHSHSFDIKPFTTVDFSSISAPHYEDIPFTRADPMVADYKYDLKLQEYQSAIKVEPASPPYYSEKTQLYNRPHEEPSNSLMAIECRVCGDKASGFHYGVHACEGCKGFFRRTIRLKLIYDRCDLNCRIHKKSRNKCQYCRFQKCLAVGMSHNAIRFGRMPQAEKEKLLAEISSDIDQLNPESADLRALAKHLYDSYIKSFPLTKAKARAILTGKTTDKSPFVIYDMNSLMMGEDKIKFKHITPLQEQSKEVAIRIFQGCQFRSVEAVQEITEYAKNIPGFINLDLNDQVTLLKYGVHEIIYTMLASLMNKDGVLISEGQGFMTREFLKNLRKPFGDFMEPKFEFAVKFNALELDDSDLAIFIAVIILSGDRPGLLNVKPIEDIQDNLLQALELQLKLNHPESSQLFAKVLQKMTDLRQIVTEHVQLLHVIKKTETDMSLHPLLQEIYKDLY

Experiment [1] concerns the target T1, His-Gabpα-FL (UniProt Q00422).
T1 sequence: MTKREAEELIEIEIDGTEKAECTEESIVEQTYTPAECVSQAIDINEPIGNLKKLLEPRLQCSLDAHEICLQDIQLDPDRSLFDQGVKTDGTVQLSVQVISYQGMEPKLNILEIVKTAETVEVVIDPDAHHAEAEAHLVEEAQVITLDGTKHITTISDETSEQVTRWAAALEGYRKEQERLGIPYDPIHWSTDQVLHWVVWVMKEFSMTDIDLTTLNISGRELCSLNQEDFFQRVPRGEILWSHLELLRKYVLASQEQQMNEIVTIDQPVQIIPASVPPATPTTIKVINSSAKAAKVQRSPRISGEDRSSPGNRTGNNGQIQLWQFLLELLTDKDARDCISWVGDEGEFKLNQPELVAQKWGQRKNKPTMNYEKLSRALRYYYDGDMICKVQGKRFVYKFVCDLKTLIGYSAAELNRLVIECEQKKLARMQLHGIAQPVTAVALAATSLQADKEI
As to the kind of experiment: co-IP; HEK293T cotransfected with His-Gabpα (or C-terminal truncation mutants) and the indicated plasmids, 72 h; lysis buffer 50 mM Tris-HCl pH 7.4, 150 mM NaCl, 1% Triton X-100, 1 mM EDTA; IP with anti-His on protein A/G magnetic beads, overnight at 4 °C; immunoblot. A general note: A western blot detects proteins with antibodies after separation by electrophoresis.

The target in experiment [2] is T2, GST-Gabpα fusion protein (UniProt Q00422).
T2 sequence: T1 sequence
As to the kind of experiment: pull-down; GST-Gabpα (1 µg) on glutathione magnetic agarose beads, 4 °C 2 h, then His-Pparγ (1 µg) at 4 °C overnight; four washes; immunoblot; both purified.

In experiment [3] the target is T3, Flag-Gabpα (lentivirus, iBAT-SVF cells) (UniProt Q00422).
T3 sequence: T1 sequence
The experiment in a line: co-IP; differentiated iBAT-SVF cells with Flag-Gabpα lentivirus; IP with anti-Flag or control IgG on protein A/G magnetic beads; immunoblot.

The target of experiment [4] is T4, His-Gabpα-FL, Q00422.
T4 chain: T1 sequence
As to the kind of experiment: co-IP; HEK293T cotransfected with His-Gabpα (or C-terminal truncation mutants) and the indicated plasmids, 72 h; lysis buffer 50 mM Tris-HCl pH 7.4, 150 mM NaCl, 1% Triton X-100, 1 mM EDTA; IP with anti-His on protein A/G magnetic beads, overnight at 4 °C; immunoblot. To be noted: remark: other sources report otherwise.

Results are given in words; binding and its absence hold for the method and conditions named. For some assays here: Binding seen in cells or lysates may run through a third protein. Some entries that bind do so weakly or less than the wild type. Where a sequence is shown, tags or fusion partners need not be part of it.

As to “Flag-Prdm16 (from UniProt A2A935 1-1275)”, the binding result in experiment [1] is “no binding”.
With “His-Pparγ protein (from UniProt P37238 1-505)”, the binding entry in experiment [2] is “binds”.
Regarding Myc-Pparγ (from UniProt P37238 1-505), the binding entry in experiment [1] is on record as “binds”.
Regarding “Pparγ (differentiated iBAT-SVF cells) (from UniProt P37238 1-505)”, the binding entry in experiment [3] is “binds”.

B1: Flag-Pgc1α, O70343 1-797 (protein)
chain: MAWDMCSQDSVWSDIECAALVGEDQPLCPDLPELDLSELDVNDLDTDSFLGGLKWCSDQSEIISNQYNNEPANIFEKIDEENEANLLAVLTETLDSLPVDEDGLPSFDALTDGAVTTDNEASPSSMPDGTPPPQEAEEPSLLKKLLLAPANTQLSYNECSGLSTQNHAANHTHRIRTNPAIVKTENSWSNKAKSICQQQKPQRRPCSELLKYLTTNDDPPHTKPTENRNSSRDKCASKKKSHTQPQSQHAQAKPTTLSLPLTPESPNDPKGSPFENKTIERTLSVELSGTAGLTPPTTPPHKANQDNPFKASPKLKPSCKTVVPPPTKRARYSECSGTQGSHSTKKGPEQSELYAQLSKSSGLSRGHEERKTKRPSLRLFGDHDYCQSLNSKTDILINISQELQDSRQLDFKDASCDWQGHICSSTDSGQCYLRETLEASKQVSPCSTRKQLQDQEIRAELNKHFGHPCQAVFDDKSDKTSELRDGDFSNEQFSKLPVFINSGLAMDGLFDDSEDESDKLSYPWDGTQPYSLFDVSPSCSSFNSPCRDSVSPPKSLFSQRPQRMRSRSRSFSRHRSCSRSPYSRSRSRSPGSRSSSRSCYYYESSHYRHRTHRNSPLYVRSRSRSPYSRRPRYDSYEAYEHERLKRDEYRKEHEKRESERAKQRERQKQKAIEERRVIYVGKIRPDTTRTELRDRFEVFGEIEECTVNLRDDGDSYGFITYRYTCDAFAALENGYTLRRSNETDFELYFCGRKQFFKSNYADLDTNSDDFDPASTKSKYDSLDFDSLLKEAQRSLRR
On to B1, for which the binding result in experiment [4] is “no binding”.
